Measured values reported in the supplement of paper PMC3334620.
Over roughly 33,000 sequences, “E-score (-0.5 to 0.5)” has its median near -0.0059; the highest 2% begin near 0.26. The list shows a part of the results.

Target: T1, Cin5 (UniProt P40917)
T1 sequence: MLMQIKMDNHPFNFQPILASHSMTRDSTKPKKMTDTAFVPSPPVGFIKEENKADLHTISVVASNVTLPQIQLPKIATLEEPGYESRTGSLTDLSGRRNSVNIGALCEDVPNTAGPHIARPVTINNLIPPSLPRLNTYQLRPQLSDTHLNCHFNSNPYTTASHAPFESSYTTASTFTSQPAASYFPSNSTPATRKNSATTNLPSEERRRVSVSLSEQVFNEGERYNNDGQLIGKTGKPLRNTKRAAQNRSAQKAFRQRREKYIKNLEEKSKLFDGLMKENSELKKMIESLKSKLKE
Assay: PBM E-score (8-mer binding enrichment) (E-score (-0.5 to 0.5)); higher = stronger / more preferred TF binding
Details: protein concentration: 100 nM; construct: GST-full length
Description: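 Universal 'all 10-mer' protein binding microarrays (Agilent AMADID 015681) probed with GST-tagged S. cerevisiae TFs (full-length or DBD) made by in vitro transcription/translation (PURExpress), about 100-200 nM. Bound TF was detected with fluorescent anti-GST. Each ungapped 8-mer (which stands for itself and its reverse complement) is scored by the PBM enrichment score (E-score), a modified Wilcoxon-Mann-Whitney statistic from -0.5 to +0.5, computed with the Universal PBM Analysis Suite. Scale: above 0.35 generally sequence-specific binding.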

Row | Sequence | PBM E-score
1 | GTGACCAA | 0.0942
2 | ATGATACG | 0.215
3 | CTCTGGCC | -0.234
4 | AGAGTTGA | -0.0644
5 | CATTTCTA | 0.0634
6 | AGATTTCG | 0.134
7 | ACCGGCCG | -0.101
8 | TGTACCAA | 0.0244
9 | GAACCCAC | 0.121
10 | GACGGGAA | -0.0113
11 | GAAGTCCC | -0.215
12 | AGGTCCGG | -0.167
13 | ACAGAACG | -0.0725
14 | AAGTCCGC | -0.1
15 | CTCCGCTA | -0.116
16 | GCTACCGA | -0.0656
17 | CGCCTGCC | -0.199
18 | AGGATCCA | -0.0524
19 | CCTCACCC | -0.0174
20 | GCTCTCAC | -0.174
21 | AAGCTCAT | 0.0455
22 | ATATCGTC | -0.00452
23 | GCAAATCA | 0.0394
24 | AACGCTAC | -0.104
25 | AACCTCTT | 0.183

Random excerpt: 3 records from the list, in no set order.
Row | Sequence | PBM E-score
15 | CTCCGCTA | -0.116
23 | GCAAATCA | 0.0394
10 | GACGGGAA | -0.0113

The listing continues:

Row | Sequence | PBM E-score
26 | ACGCTGCA | -0.205
27 | CCGAGAAC | 0.0886
28 | CGCTATCA | 0.122
29 | CAACCGTA | -0.263
30 | AAATAGCG | 0.0384
31 | GGATCGAA | -0.0487
32 | GACGCACC | -0.0178
33 | CAAAACTA | 0.116
34 | AAGCTGCC | -0.0392
35 | AATCCTCA | -0.0921
36 | ACCTTGTA | -0.0397
37 | CACGAAAA | 0.115
38 | GATCCCTA | -0.0517
39 | GTCGGTGA | -0.233
40 | AGGCCTAA | 0.0684
41 | ACACCTTG | -0.0698
42 | AACTCCCA | 0.0682
43 | CCGTTTTC | 0.108
44 | CCCCTGTC | -0.388
45 | ATAATATG | 0.289
46 | ATACTAGC | 0.154
47 | GATGACTA | 0.115
48 | CAATGTAC | -0.235
49 | GGATCAAC | 0.0508
50 | GATTTCCC | 0.028

Row | Sequence | PBM E-score
51 | CGGCTAAC | -0.0544
52 | AGCGGACT | -0.2
53 | ATTAGGAA | -0.00206
54 | AACGTTAA | 0.0646
55 | GAATGTAC | 0.0981
56 | CCCCATTA | -0.176
57 | ATTTACAC | 0.0129
58 | CCGGCCAG | -0.147
59 | ATCCGGAC | -0.149
60 | AGATCTTC | -0.0381
61 | GATAGAAC | 0.0486
62 | ATTGCTGA | 0.115
63 | CCCGGGGA | -0.108
64 | CTGTAATA | 0.105
65 | ATAAAAAT | 0.0935
66 | ATTGGTTG | 0.205
67 | CTCGAGCC | -0.0495
68 | AAGAACGC | -0.0488
69 | ACAGGTCC | -0.227
70 | AGCTTGGA | -0.182
71 | AATATCAA | 0.203
72 | AATTGCGA | 0.0349
73 | AACGTCCT | 0.0671
74 | CGGTAGAC | -0.0132
75 | AGACAAGA | 0.0614

Row | Sequence | PBM E-score
76 | TAACACAA | 0.155
77 | GTACTCTA | -0.0538
78 | CCGCCTAA | -0.0943
79 | GCTGCCGA | -0.183
80 | AGTAGGTA | 0.0225
81 | ACAACGCT | -0.00306
82 | CTTTCGCC | -0.0892
83 | GAACACTC | 0.0733
84 | GAAGATTC | 0.0827
85 | AAGAGTTC | -0.117
86 | GATCGAAA | 0.223
87 | GAAAGTTC | -0.118
88 | ATAAGGTA | 0.186
89 | TCCTTCGA | -0.183
90 | GCTCGGCA | -0.0441
91 | CTGAGTAC | -0.0169
92 | CCGGCATA | -0.02
93 | CGTCTAAA | -0.073
94 | CAATCTAC | -0.0222
95 | GGTGCGAC | -0.0558
96 | CCAGATAC | -0.0913
97 | GCTCAATA | 0.108
98 | CAGAATAA | 0.162
99 | AGTTCAAA | 0.104
100 | AACCCTAT | 0.107

Part of the list above in another layout.
Row,Sequence,PBM E-score
32,GACGCACC,-0.0178
33,CAAAACTA,0.116

(cont.)

Row | Sequence | PBM E-score
101 | AGGCCTAG | -0.187
102 | GCATTATA | 0.152
103 | CTGCAGAC | -0.12
104 | ATAAATAG | 0.102
105 | ACTGCCCC | -0.125
106 | AAGTTCGC | 0.0418
107 | TCAGTAGA | 0.0235
108 | AAGTACAT | 0.131
109 | GGAATGAA | 0.244
110 | TCCTGTCA | -0.101
111 | CTAGGAAG | -0.184
112 | CGTGGTTC | -0.0577
113 | CACCCGTG | -0.101
114 | AATTCCCC | 0.197
115 | CTTTAGAC | -0.0755
116 | GTCTATTA | 0.0891
117 | TTATAAAA | 0.289
118 | GAACTGTC | -0.044
119 | ACTCGCAG | 0.00109
120 | AGGCGATG | -0.00053
121 | CGAACTCG | 0.0986
122 | CCTCAGCA | -0.0511
123 | GAGAGGAC | -0.00053
124 | CCGTCGTA | 0.0158
125 | CCTTAGAG | -0.296

Row | Sequence | PBM E-score
126 | CCTATTCA | -0.0293
127 | TCTACTCA | 0.0957
128 | AACTCCCC | 0.00124
129 | CCGTAATC | 0.329
130 | CACTTGGC | -0.0907
131 | AAGGACCC | -0.275
132 | AAGACCCT | -0.111
133 | GAAAATCC | -0.067
134 | ACGAGATA | -0.0423
135 | GTATGGAC | 0.0654
136 | GGATATCA | -0.0284
137 | GCGCACGA | 0.0484
138 | TCTCCACA | -0.037
139 | CACTGCGG | 5e-05
140 | CAGAGGCC | -0.31
141 | AACAATGC | 0.224
142 | AGTCCAAA | -0.0396
143 | ACTTCAAT | 0.148
144 | ATTGTTGC | 0.0803
145 | CTGGCGTC | -0.104
146 | CACCCGAC | -0.0307
147 | ATTCCCTA | 0.153
148 | AAGCGCCA | -0.158
149 | CCTTTTCA | 0.022
150 | AGGCCACT | -0.0477

Row | Sequence | PBM E-score
151 | TCGCAGAA | -0.218
152 | AATAGTCT | 0.102
153 | CCCCAGCA | 0.0531
154 | GCAGTTGA | 0.129
155 | AACTGCCC | -0.108
156 | ATGTCGGC | -0.0782
157 | TACCAAGA | 0.0462
158 | ACAGTTTC | 0.21
159 | CCAAAACG | 0.0689
160 | TACACCAA | 0.0903
161 | AAGAGCCC | -0.195
162 | CCACAGGA | 0.00553
163 | TATTATAA | 0.226
164 | ACGTACAC | 0.105
165 | AGATGTCA | 0.104
166 | ACGCGCGT | 0.138
167 | AAAGGGCT | -0.259
168 | AGCCTCGG | -0.167
169 | TACTGAAA | 0.267
170 | ACGGAGTA | 0.0754
171 | AGACATTG | -0.0324
172 | AACCAGTT | 0.174
